In PubChem BioAssay AID624297 (National Center for Advancing Translational Sciences (NCATS), 2012):
The campaign covered roughly 340,000 compounds. About 6,200 (1.8%) were called active. This list was built around the results that the source calls inconclusive (neither active nor inactive); the mix of calls is not that of the screen. The call rests on the fitted dose curve; in most records, active means well fitted activation curve with a large enough effect; inconclusive means small, poorly fitted or top-dose-only effect; inactive means no such curve, though single readings can be large or run the other way. Potencies of inconclusive entries are doubtful fits and often do not repeat.

Experiment: A quantitative high throughput screen for small molecules that induce DNA re-replication in SW480 colon adenocarcinoma cells. Further: nearly all actives have a fitted effect of over 55% in size. On re-replication activation: % of control where 0% means no effect.
Conditions: Hoechst DNA content imaging, 48 h; re-replication activation: at 46.1 µM (top of the series) unless noted
How it was run: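 250 cells/well; 23 nL cpd via pin tool; 48 hr, 37 C, 5% CO2; Hoechst 40 min; imager read of total nuclear intensity, ex 405/em 500-530 nm.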
Potency means the concentration at half of the fitted maximal effect.

Row | Structure (SMILES) | Potency | re-replication activation
1 | COc1ccc(C2=NN(C(=O)CCC(=O)O)C(c3ccccc3OC)C2)cc1 (stereo not drawn) | inactive | 
2 | COc1ccc(Nc2nc(C)nc3sc4c(c23)CCC4)cc1O | inconclusive: 8.2 µM [activator, partial curve] | 
3 | O=C(CN1CCC(n2nnc3cc(C(F)(F)F)ccc32)CC1)Nc1ccc2c(c1)OCCO2 | inactive | 
4 | CSCCC(NS(=O)(=O)c1ccc2c(c1)oc(=O)n2C)C(=O)NCc1ccccc1 (stereo not drawn) | inconclusive: 16.4 µM [activator, single point] | 
5 | O=c1[nH]cnc2sc3c(c12)CCCCC3 | inactive | 
6 | CSc1nc(N)nc(SCC(=O)Nc2cccc(F)c2)c1C#N | inconclusive: 0.116 µM [activator, full curve, poor fit] | 
7 | COc1ccc(NC(=O)CSc2nnnn2C2CCCC2)cc1 | inconclusive: 0.164 µM [activator, full curve, poor fit] | 
8 | Cc1ccc(-c2c(C(=O)NCc3ccc(F)cc3)oc(=O)c3ccccc23)cc1 | inactive | 
9 | Cc1ccc(OCCCC(=O)NNC(=O)c2ccccn2)cc1 | inconclusive: 6.51 µM [activator, partial curve] | 
10 | Cc1cc(C(=O)N(C)Cc2c(F)cccc2Cl)c2ccccc2n1 | inactive | 
11 | Cc1ccc(Cn2c(/C=C/c3ccco3)nc3ccccc32)cc1 | inactive | 
12 | Cc1ccc(C(=O)O/N=C(\N)c2cccnc2)cc1[N+](=O)[O-] | inconclusive: 5.17 µM [activator, full curve] | 
13 | O=c1c2c(nc3cc(-c4ccccc4)[nH]n13)CCS2 | inconclusive: 1.64 µM [activator, partial curve, poor fit] | 
14 | Cc1ccc2c(c1)NC(=O)[C@@]1(C)[C@@H](c3ccccc3)[C@H]3COc4ccc(Cl)cc4[C@@H]3N1C2=O | inconclusive: 20.6 µM [activator, single point] | 
15 | CC1(C)SC(=S)N(/N=C/c2ccccc2O)C1N(O)C(=O)Nc1ccccc1 (stereo not drawn) | inconclusive: 16.4 µM [activator, single point] | 
16 | CCN(CC)C(=O)c1cc([N+](=O)[O-])cc2c1-c1ccc([N+](=O)[O-])cc1C2=C(C#N)C#N | inconclusive: 29.1 µM [activator, single point] | 
17 | COc1cccc(C(=O)NC2CCNCC2)c1 | inconclusive: 0.0052 µM [activator, full curve, poor fit] | 
18 | CCC(c1nnnn1Cc1ccc2c(c1)OCO2)N1CCN(c2ccc(F)cc2)CC1 (stereo not drawn) | inconclusive: 29.1 µM [activator, single point] | 
19 | CCN(CC)S(=O)(=O)c1ccc(N/N=C/c2ccc(O)cc2O)nc1 | inconclusive: 9.2 µM [activator, partial curve, poor fit] | 
20 | Cc1nn(-c2ccccc2)c(Cl)c1/C=N/NC(=O)CNC(=O)c1ccccc1Cl | inconclusive: 29.1 µM [activator, single point] | 
21 | Cc1cccn2c(=O)c3cc(C(=O)NC(C)C)c(=N)n(Cc4ccncc4)c3nc12 | active: 20.6 µM | 
22 | Cc1ccc(NC(=O)c2ncn(CCCN[C@H](C)c3cccc4ccccc34)n2)cc1C | inconclusive: 0.326 µM [activator, full curve, poor fit] | 

Row | Structure (SMILES) | Potency | re-replication activation
23 | O=C(NC(=S)Nc1ccccc1N1CCN(C(=O)c2ccccc2)CC1)c1ccccc1F | inactive | 
24 | C[C@@H]1CCC2[C@](C)(CO)[C@@H](O)CC[C@]2(C)[C@@]12CC[C@@](CO)(CC(=O)O)O2 (stereo partly drawn) | inactive | 
25 | COc1ccccc1N(CC(O)Cn1c2ccccc2c2ccccc21)S(=O)(=O)c1ccccc1 (stereo not drawn) | inconclusive: 11.6 µM [activator, partial curve, poor fit] | 
26 | Cc1ccc(OCc2nc3ccccc3n2C)cc1 | inconclusive: 0.0052 µM [activator, full curve, poor fit] | 
27 | CN(C)CCN(Cc1ccco1)C(=O)c1cc2c(Cl)nc3ccccc3c2s1 | inconclusive: 29.1 µM [activator, single point] | 
28 | Cc1cc(NC(=O)/C=C/C(=O)N(c2ccccc2C)C(C(=O)NC2CCCC2)c2ccc(F)cc2)no1 (stereo not drawn) | inconclusive: 18.4 µM [activator, single point] | 
29 | CCOC(=O)c1c(N)n(C2CC(C)(C)NC(C)(C)C2)c2nc3ccccc3nc12 | inactive | 
30 | COc1ccc(Nc2nc(-c3cccs3)nc3ccccc23)cc1S(=O)(=O)N1CCOCC1 | inconclusive: 16.4 µM [activator, single point] | 
31 | CNS(=O)(=O)c1ccc2nc(NC(=O)/C=C/c3ccco3)sc2c1 | inconclusive: 18.4 µM [activator, single point] | 
32 | O=c1[nH]c(CSc2nc3ccccc3o2)nc2c1cnn2-c1ccccc1 | inactive | 
33 | CCNc1ccccc1CP(=O)(c1ccccc1)c1ccccc1O (stereo not drawn) | inconclusive: 29.1 µM [activator, single point] | 
34 | CCOc1ccc(NC(=O)c2ccc(NC(=O)CSc3nc4ccccc4c(=O)[nH]3)cc2)cc1 | inconclusive: 5.8 µM [activator, partial curve, poor fit] | 
35 | COc1ccc2cc(-c3[nH]ncc3CN3CCCN(c4ccccc4)CC3)ccc2c1 | inconclusive: 29.1 µM [activator, single point] | 
36 | CCc1nnc(NC(=O)CSc2nc3c(cc2C#N)CCCC3)s1 | inactive | 
37 | O=C(NCc1ccc2c(c1)OCO2)c1ccccc1Cl | inactive | 
38 | CC(C)(C)c1ccc(-c2cc(C(=O)NNC(=O)Nc3ccccc3)c3ccccc3n2)cc1 | inconclusive: 2.06 µM [activator, full curve, poor fit] | 
39 | Cc1[nH][nH]c(=O)c1C(c1c(C)[nH][nH]c1=O)c1cn(Cc2cccc3ccccc23)c2ccccc12 | inconclusive: 23.1 µM [activator, single point] | 
40 | O=S(=O)(Nc1ccc(F)cc1Cl)c1ccc(-c2cnc(C3CC3)o2)cc1 |  | inconclusive: 2.76% [activator]
41 | CC(C)CN1CCN(CCCOC(=O)Nc2cccc3ccccc23)CC1C (stereo not drawn) | inactive | 
42 | Cc1ccc(/C=C/C(=O)Nc2sc3c(c2C#N)CCCC3)o1 | active: 1.16 µM | 
43 | CN(C(=O)c1cccc(NC(=O)Cc2ccc(NC(=O)C3CCCN(C(=O)C4CCCCC4)C3)cc2)c1)C1CCC1 (stereo not drawn) | inconclusive: 0.411 µM [activator, full curve] | 

Among those listed so far, these contain a COOH group:
Row | Structure (SMILES) | Potency | re-replication activation
1 | COc1ccc(C2=NN(C(=O)CCC(=O)O)C(c3ccccc3OC)C2)cc1 (stereo not drawn) | inactive | 
24 | C[C@@H]1CCC2[C@](C)(CO)[C@@H](O)CC[C@]2(C)[C@@]12CC[C@@](CO)(CC(=O)O)O2 (stereo partly drawn) | inactive | 
